Data published in paper PMC9249397.
These are yes or no findings as the source states them, for the method shown. In cells and extracts the contact can be indirect. Some results given as binding are weak or reduced against the parent protein; the word gives no strength. For part of these data: Sequences can lack the tags named with a protein. Each block holds one binder with its values, some of them ahead of it.

By UniProt entry, the sequences of proteins in these tests, tags left out. Where a name states a change or a piece, a line headed by the entry shows the natural chain unless it says otherwise. Residues count along the entry.
UniProt Q8N7X0: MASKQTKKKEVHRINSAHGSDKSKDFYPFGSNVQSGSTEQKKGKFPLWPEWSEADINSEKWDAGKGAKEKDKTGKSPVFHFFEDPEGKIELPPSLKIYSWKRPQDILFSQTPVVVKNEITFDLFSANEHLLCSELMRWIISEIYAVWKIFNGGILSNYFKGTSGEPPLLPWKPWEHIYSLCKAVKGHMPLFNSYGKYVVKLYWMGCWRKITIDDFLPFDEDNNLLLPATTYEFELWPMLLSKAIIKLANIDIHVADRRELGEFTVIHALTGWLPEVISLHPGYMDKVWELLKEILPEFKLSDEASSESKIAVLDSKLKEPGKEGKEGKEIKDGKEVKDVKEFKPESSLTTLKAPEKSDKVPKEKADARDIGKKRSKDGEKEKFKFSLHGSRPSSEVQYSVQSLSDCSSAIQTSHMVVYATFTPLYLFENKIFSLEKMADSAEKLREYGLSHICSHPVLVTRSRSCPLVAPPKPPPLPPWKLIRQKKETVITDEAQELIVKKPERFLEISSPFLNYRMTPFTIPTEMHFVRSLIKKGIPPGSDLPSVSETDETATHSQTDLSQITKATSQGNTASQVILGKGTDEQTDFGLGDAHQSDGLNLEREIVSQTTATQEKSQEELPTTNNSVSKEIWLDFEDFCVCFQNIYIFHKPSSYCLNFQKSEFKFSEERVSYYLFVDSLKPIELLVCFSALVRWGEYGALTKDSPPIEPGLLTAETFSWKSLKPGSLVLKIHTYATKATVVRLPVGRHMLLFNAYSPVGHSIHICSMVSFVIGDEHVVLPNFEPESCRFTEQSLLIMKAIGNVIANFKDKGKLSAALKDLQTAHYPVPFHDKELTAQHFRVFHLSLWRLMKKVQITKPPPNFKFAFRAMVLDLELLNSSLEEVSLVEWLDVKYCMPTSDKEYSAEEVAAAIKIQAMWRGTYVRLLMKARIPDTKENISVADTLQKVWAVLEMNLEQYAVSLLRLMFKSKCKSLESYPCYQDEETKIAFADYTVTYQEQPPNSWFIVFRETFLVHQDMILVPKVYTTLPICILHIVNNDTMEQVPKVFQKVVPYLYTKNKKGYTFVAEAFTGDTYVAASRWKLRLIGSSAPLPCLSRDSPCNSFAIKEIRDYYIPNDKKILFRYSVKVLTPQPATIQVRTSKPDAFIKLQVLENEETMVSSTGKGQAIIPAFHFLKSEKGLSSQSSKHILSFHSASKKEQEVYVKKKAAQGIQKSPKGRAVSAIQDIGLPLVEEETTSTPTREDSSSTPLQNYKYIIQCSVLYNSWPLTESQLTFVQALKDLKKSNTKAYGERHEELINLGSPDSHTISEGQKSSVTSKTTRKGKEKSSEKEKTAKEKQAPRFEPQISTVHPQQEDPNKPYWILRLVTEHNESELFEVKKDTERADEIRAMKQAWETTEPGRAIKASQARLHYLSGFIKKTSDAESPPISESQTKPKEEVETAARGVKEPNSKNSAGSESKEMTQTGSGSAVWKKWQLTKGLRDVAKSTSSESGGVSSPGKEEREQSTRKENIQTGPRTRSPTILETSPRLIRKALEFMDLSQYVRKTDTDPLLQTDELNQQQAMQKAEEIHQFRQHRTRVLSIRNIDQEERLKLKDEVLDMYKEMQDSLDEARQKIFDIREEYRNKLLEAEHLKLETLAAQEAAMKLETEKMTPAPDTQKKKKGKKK
N-terminal mutant ADGB: residues 58-968 of Q8N7X0
C-terminal mutant ADGB: residues 969-1667 of Q8N7X0
UniProt G3UZ78: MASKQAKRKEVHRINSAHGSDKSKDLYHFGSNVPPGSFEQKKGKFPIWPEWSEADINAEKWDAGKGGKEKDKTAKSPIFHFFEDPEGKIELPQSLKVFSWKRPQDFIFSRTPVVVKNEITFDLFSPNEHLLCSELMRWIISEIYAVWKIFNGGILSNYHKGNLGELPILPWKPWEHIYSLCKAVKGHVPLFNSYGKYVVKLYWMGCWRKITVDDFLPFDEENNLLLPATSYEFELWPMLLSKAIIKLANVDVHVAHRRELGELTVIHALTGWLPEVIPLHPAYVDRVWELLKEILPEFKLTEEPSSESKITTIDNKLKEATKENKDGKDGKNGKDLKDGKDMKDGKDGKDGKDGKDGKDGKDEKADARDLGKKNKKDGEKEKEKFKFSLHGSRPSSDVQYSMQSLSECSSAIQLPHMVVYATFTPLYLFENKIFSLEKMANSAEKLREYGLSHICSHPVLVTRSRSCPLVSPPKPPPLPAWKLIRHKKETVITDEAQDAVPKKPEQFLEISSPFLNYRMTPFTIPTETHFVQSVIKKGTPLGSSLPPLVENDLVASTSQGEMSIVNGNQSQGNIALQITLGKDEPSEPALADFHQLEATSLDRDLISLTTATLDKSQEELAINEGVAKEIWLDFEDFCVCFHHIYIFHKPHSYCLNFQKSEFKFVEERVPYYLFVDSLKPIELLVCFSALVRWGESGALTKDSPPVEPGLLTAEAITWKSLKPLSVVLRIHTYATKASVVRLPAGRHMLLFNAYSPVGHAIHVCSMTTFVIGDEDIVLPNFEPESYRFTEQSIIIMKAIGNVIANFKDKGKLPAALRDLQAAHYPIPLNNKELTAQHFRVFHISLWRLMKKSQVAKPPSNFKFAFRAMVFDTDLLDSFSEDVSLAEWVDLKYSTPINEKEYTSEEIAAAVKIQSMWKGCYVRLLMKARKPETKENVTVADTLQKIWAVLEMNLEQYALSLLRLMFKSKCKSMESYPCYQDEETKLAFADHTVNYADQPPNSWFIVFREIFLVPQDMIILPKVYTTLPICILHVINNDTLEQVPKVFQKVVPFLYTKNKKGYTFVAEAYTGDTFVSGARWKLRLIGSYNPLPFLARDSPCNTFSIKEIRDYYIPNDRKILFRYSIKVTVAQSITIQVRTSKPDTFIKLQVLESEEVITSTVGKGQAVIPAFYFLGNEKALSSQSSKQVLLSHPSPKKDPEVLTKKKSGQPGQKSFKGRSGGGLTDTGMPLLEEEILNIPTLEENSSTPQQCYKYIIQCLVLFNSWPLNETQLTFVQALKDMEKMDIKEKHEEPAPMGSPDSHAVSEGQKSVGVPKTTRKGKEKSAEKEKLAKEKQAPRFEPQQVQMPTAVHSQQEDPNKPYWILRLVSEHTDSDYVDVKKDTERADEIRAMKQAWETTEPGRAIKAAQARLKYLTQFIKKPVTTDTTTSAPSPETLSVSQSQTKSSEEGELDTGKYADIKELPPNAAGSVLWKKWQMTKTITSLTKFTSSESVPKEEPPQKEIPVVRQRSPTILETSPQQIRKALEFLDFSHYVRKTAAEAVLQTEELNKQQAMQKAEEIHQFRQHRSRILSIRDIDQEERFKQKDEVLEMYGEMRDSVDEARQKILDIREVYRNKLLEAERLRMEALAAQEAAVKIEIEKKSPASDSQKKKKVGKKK

What was measured:
[1] = biological target: full-length ADGB (UniProt Q8N7X0); test: co-IP; lysates (1% triton buffer) of HEK293 cells (co-)transfected with the two constructs, IP by antibody to the protein or its tag (FLAG, V5, GFP), immunoblot; for GFP-Globin and V5-CaM also after heme depletion (heme-depleted FBS, 3 mM succinylacetone, 24 hr)
[2] = biological target: C-terminal mutant ADGB (UniProt Q8N7X0); test: as above
[3] = biological target: N-terminal mutant ADGB (UniProt Q8N7X0); test: as above
[4] = biological target: T1, C-terminally V5-tagged SEPT10 (UniProt Q9P0V9); test: as above
T1 sequence: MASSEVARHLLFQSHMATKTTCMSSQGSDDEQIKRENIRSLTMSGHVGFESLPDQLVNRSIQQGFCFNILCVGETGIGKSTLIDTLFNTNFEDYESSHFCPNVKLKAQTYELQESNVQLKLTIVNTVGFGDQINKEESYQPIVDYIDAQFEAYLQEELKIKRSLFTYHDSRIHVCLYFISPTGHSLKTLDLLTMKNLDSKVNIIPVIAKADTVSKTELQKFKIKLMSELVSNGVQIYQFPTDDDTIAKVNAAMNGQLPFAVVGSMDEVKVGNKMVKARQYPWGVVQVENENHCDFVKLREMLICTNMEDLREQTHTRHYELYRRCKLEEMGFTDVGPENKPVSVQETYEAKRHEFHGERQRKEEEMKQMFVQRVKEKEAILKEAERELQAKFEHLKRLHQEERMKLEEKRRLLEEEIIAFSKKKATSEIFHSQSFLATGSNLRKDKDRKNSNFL

[5] = biological target: androglobin (Adgb) (mouse (endogenous in testis)) (UniProt G3UZ78); test: co-IP; reciprocal co-IP from testis lysates of wild-type and Adgb knockout mice (2 mg protein), protein G-sepharose, immunoblot

binding [1]: binds
B1: C-terminally V5-tagged SEPT10 (protein, UniProt Q9P0V9 1-454)
chain: T1 sequence

binding [1]: binds
binding [2]: binds
binding [3]: binds
B2: SEPT10 (protein, UniProt Q9P0V9 1-454)
chain: T1 sequence

binding [4]: binds
B3: FLAG-SEPT7 (protein, UniProt Q16181 1-437)
chain: MSVSARSAAAEERSVNSSTMVAQQKNLEGYVGFANLPNQVYRKSVKRGFEFTLMVVGESGLGKSTLINSLFLTDLYSPEYPGPSHRIKKTVQVEQSKVLIKEGGVQLLLTIVDTPGFGDAVDNSNCWQPVIDYIDSKFEDYLNAESRVNRRQMPDNRVQCCLYFIAPSGHGLKPLDIEFMKRLHEKVNIIPLIAKADTLTPEECQQFKKQIMKEIQEHKIKIYEFPETDDEEENKLVKKIKDRLPLAVVGSNTIIEVNGKRVRGRQYPWGVAEVENGEHCDFTILRNMLIRTHMQDLKDVTNNVHYENYRSRKLAAVTYNGVDNNKNKGQLTKSPLAQMEEERREHVAKMKKMEMEMEQVFEMKVKEKVQKLKDSEAELQRRHEQMKKNLEAQHKELEEKRRQFEDEKANWEAQQRILEQQNSSRTLEKNKKKGKIF

binding [5]: binds
B4: septin 10 (Sept10) (protein, UniProt Q8C650 1-452)
chain: MASCDEIKEHPRSLSMCGHVGFESLPDQLVDRSIEQGFCFNILCVGETGIGKSTLINTLFNTNFEELESSHFCPCVRLRAQTYELQESNVRLKLTIVNTVGFGDQINKEDSYQPIVDYIDDQFEAYLQEEVKIKRALFNYHDSRIHVCLYFIAPTGHSLRTLDLLTMKSLDNKVNIIPLIAKADTISKSELQKFKMKLMNELVINGVQIYQFPTDDDTTSKINGAMNGHLPFAVVGSMDEIKVGNKMVKGRQYPWGIVQVENENHCDFVKLREMLICTNMEDLREQTHMRHYELYRRCKLQEMGFVDMGPENKPLSLQETYEAKRHEFYGERQRKEEQMKQMFVQRVKEKEAILKEAERELQAKFEHLKRIHQEERMKLEEKRRMLEEESVAFAKKKATCELFPNQSFLASGSSIRKDKDRKKADGASAFCDCLTAQESVRLCISSPRKDMD
